Primary screen of a compound library

Measurements from “University of Dundee, Small-Polar-MMV Screening Library” (2021), ChEMBL document CHEMBL3988442.

Mtb cholesterol medium: 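Growth of Mycobacterium tuberculosis over 4 days (cholesterol / DPPC medium with tyloxapol); the read-out is not stated. Concentration: 50 µM. Direction is inferred from retests: higher values go with more growth inhibition. Of about 69,000 compounds tested this way, about 370 (0.54%) reached 50% or more in at least one test.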
Mtb glucose medium: 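Growth of Mycobacterium tuberculosis over 3 days (7H9 medium with glucose and tyloxapol); the read-out is not stated. Concentration: 50 µM. The record gives no direction; compounds that gave an IC50 in retests scored well above the rest, so higher reads as more growth inhibition. About 69,000 compounds were tested under these conditions; 1.1% (about 760) showed 50% or more at least once.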

Results are given as percent effect.
The controls that fix the scale are not given in the record; negative values are as filed.
The compounds are a random part of those screened.
Two or more numbers in one place are separate tests of the same structure; such repeats can differ widely.

structure | Mtb cholesterol medium | Mtb glucose medium
COC(=O)CN(C(=O)c1ccc(-n2ccnc2)cc1)C1CC1 | 5.824% | -5.854%
COc1ccc(CN2CCn3cc(CN4CCCCC4)nc3C2)cc1.O=C(O)C(F)(F)F.O=C(O)C(F)(F)F | -9.342% | -13.42%
CC(C)COC(C)C(=O)N1CCCCCC1 (stereo unspecified) | -6.779% | 11.6%
Cc1nc(N)cc(NCc2csc(N(C)C)n2)n1 | 4.932% | -7.974% and 2.779%
NC(=O)c1cnc(NC2CCC(c3ccccc3)CC2)c(Cl)c1 (stereo unspecified) | 7.568% | 4.792% and 21.27%
CCNc1cc2c(nn1)CCN(C(=O)c1ccnc(C)n1)C2 | 0.9752% | 28.72%
CNC(=O)Cc1noc(Cc2ccc3c(c2)CCCC3)n1 | -5.078% | -5.662%
[H][C@]12CC[C@@]3(N=C(C)N(CC(C)C)C3=O)[C@@]1([H])CN(S(=O)(=O)CC(C)C)C2 | -7.793% | -7.502%
O=C(O)C(F)(F)F.O=C(O)C(F)(F)F.[H][C@@]12COC[C@]1([H])[C@@H](OCc1ccccn1)CN2Cc1cccc(C)n1 | -0.5993% | -8.393%
NC(=O)CSc1ccccc1NC(=O)C1CCCC1 | 4.256% | -11.42%
CCc1ncc2c(n1)CN(CC(=O)Nc1nnc(C)s1)CC2 | -12.8% | -19.61%
Cc1ccc(C(=O)NCC2(O)CCOCC2)cc1Br | 13.99% | 11.93%
O=C(NC1CC1)N1CCCC2(CCCCN2)C1.O=C(O)C(F)(F)F (stereo unspecified) | -5.602% | -6.367%
CC(C)COC(=O)N1CCCN(C(C)c2nc(C(C)C)no2)CC1 (stereo unspecified) | 28.64% | 26.74%
CN(C)Cc1ccc(C2CCCCN2C(=O)c2cc(=O)[nH]c(=O)[nH]2)cc1 (stereo unspecified) | -2.615% | -16.16%
Cc1cccc(C)c1OC1CN(Cc2cnn(C)c2)C1 | -9.77% | 7.542%
c1cnnc(NCC2CN(CCn3cncn3)CCO2)c1 (stereo unspecified) | -12.28% | -17.71% and -4.956%
COc1ccc(Cl)cc1CCNC(=O)NCc1noc(C)n1 | 6.036% | -15.31%
Cc1cc(C)n(-c2cncc(NCCC(=O)NC(C)C)n2)n1 | -1.265% | 14.31%
O=S(=O)(C1CC1)N1CC[C@]2(C[C@@H](OCC3CCOCC3)CO2)C1 | -4.628% | 16.44%
O=C(NC[C@H]1OC[C@@H](NC2CCC(F)(F)CC2)[C@@H]1O)Nc1ccccc1 | -16.72% | -15.15% and -2.333%
CN(C)C(C(=O)N1CC(Oc2ccccc2F)C1)c1ccc(F)cc1 (stereo unspecified) | 11.85% | 27.85%
CCc1nc(CC)n(CC(=O)N(CC)CC)n1 | 3.825% | 15.45% and -0.9056%
O=C(c1ccc(OCC2CC2)cc1)N1CCOCC1c1ncon1 (stereo unspecified) | -15.76% | -10.79%
c1cnc(C2CCCN2c2cnccn2)cn1 (stereo unspecified) | -9.483% | 0.6542%
CC(C)Cc1ccc(S(=O)(=O)NCCCN2CCNC(=O)C2)cc1 | -8.015% | 0.3954%
CNC(=O)CCOC(=O)c1cccc(-n2cccn2)c1 | -17.51% | -11.16% and 1.388%
CCc1nccn1-c1cncc(C2CCCN2Cc2ccc(F)cc2)n1 (stereo unspecified) | 4.044% | 3.59%
CNC(=O)CN1CCOCC2(CCCN(Cc3ccsc3)C2)C1.O=C(O)C(F)(F)F.O=C(O)C(F)(F)F (stereo unspecified) | 1.139% and -6.601% | -9.241%
Cc1ccc(CN(CCCn2ccnc2)Cc2cccs2)s1.O=C(O)CC(O)(CC(=O)O)C(=O)O | 25.49% | 65.26%
COc1cc(C)c(C2CC(=O)NCc3nc4sccn4c32)cc1C (stereo unspecified) | 2.76% | 1.192% and 28.83%
Cc1cc(C2CCC2)nc(N2CCC3(CC2)OCCCC3O)n1 (stereo unspecified) | -7.452% | -13.1%
Cn1c(C(N)=O)cc2c1CN(C(=O)C1CC(=O)N(C(C)(C)C)C1)CC2 (stereo unspecified) | 11.53% | -9.08%
Cn1nnc2c(N3CC(C(=O)NCCC4=CCCCC4)C3)ncnc21 | -4.841% | -31.18%
CCc1nnsc1C(=O)NCc1c(C)nn(CCOC)c1C | -8.362% | 9.116%
COc1ccc(-c2cc(C(=O)NCCn3ccnc3)n(C)n2)cc1 | 6.893% | -24.07%
Cc1ccc(CCNC(=O)NCCCC(N)=O)c(C)c1 | 10.11% | 22.08%
COc1ccc(NC(=O)NC(C)c2nc[nH]n2)cc1Cl (stereo unspecified) | -9.67% | 1.63% and 3.618%
Cc1nc2c(c(=O)n1C)CCN(C(=O)CCc1ccccn1)CC2 | -17.08% | 1.639%
CCN1CCC(CNC(=O)Nc2cc(C)on2)C1 (stereo unspecified) | -14.41% | -40.98%
COCc1ccc(C(=O)N2CCC(c3nccn3CC3CC3)CC2)o1 | -3.469% and -4.889% | -8.613%
COCC(=O)N1CCCC2(CCN(CCN3CCCC3)CC2)C1.O=C(O)C(F)(F)F.O=C(O)C(F)(F)F | 7.349% | 17.97% and -2.751%
NC(=O)C1CCN(C(=O)c2cccn2Cc2cccs2)C1 (stereo unspecified) | -1.993% | 6.317%
CN(CCc1ccc(F)cc1)Cc1nc2c(cnn2C)c(=O)[nH]1 | -2.149% | 6.15%
CC[C@@H]1N(Cc2ccc(C)o2)CCC[C@]12CCC(=O)N2CCOC.O=C(O)C(F)(F)F | -13.29% | -44.37%
O=C(Cc1ccc2c(c1)CCO2)N1CCN(c2nccs2)CC1 | -16.83% | 1.392% and -72.24%
O[C@H]1CN(Cc2ccc3c(c2)OCCO3)CC[C@@]12CCCO2 | -3.691% | -9.264%
COCC(=O)N1CCN(Cc2coc(-c3cccc(F)c3)n2)CC1 | -7.819% | -17.98%
Cc1nc(C2(O)CCCNCC2)sc1CCOc1ccccc1Cl.Cl (stereo unspecified) | 17.36% | 41.31%
O=C(c1n[nH]cc1Cl)N1CCOC(Cc2cccc(C(F)(F)F)c2)C1 (stereo unspecified) | 7.995% | 21.51% and 11.96%
CN(C(=O)Nc1ccncc1)C1CCN(c2ccccc2)C1=O (stereo unspecified) | 8.475% | 17.73%
CCc1ccc(NC(=O)c2cnc(N3CCCC3)nc2C)cc1 | 7.619% | 13.93%
COCCOc1ccnc(-c2noc([C@@H]3CCCN3C(C)C)n2)c1 | -8.183% | -14.89% and -1.216%
CC(C)CCN(C(=O)c1cc2c([nH]c1=O)CCCC2=O)C1CC1 | -23.91% | -5.122%
Cc1cc(-c2nn(C)c(Cl)c2CN2CCCCC(N)C2)no1 (stereo unspecified) | 6.087% | 18.74%
O=C(NCc1cnc2n1CCN(Cc1nccs1)C2)c1ccno1.O=C(O)C(F)(F)F | -0.2383% | -8.305%
Cn1cnnc1C1CCCN(C(=O)c2ccccc2Cl)C1 (stereo unspecified) | -9.777% | -11.27%
COCCC(=O)N1CCC2(CCCN2Cc2ccccc2)C1 (stereo unspecified) | -3.663% | 10.16%
[H][C@]12CN(CCCc3cccnc3)CC[C@@]1(O)CCN(S(=O)(=O)N(C)C)C2 | -0.6971% | 11.4%
CCc1cc(=O)[nH]c(-n2nc(C3CC3)cc2NC(=O)C2CC2)n1 | 42.71% | 72.3%
CCc1nc(CCNC(=O)NC2CC2)sc1C | 7.228% and 12.86% | -18.63%
Fc1ccccc1CN(CCCn1ccnc1)CC1CCOC1.O=C(O)CC(O)(CC(=O)O)C(=O)O (stereo unspecified) | -13.08% | 16.03%
CNc1ccc(CC2CCCN(C(=O)c3cnco3)C2)nn1 (stereo unspecified) | 15.3% | 48.16%
COc1ccc(NC(=O)CSc2nc(C)cc(C)n2)cn1 | -2.732% | 10.41%
Cc1ccc2cc(C(=O)N3CCCN(C)CC3)ccc2n1 | -6.332% | -5.323%
COCCC1(CO)CCCN(C(=O)c2cc(C#N)c(=O)[nH]c2C)C1 (stereo unspecified) | -10.52% | -26.03%
CCC(C(=O)NC1(CN2CCOCC2)CCCC1)n1cccn1 (stereo unspecified) | -3.984% | -13.99% and -9.955%
CCCNC(=O)CNC(=O)c1scnc1C | 1.264% | 12.05%
Cc1cc(C)cc(Nc2nc(C)cc(=O)n2CC(=O)NC(C)C)c1 | -12.99% | -0.5271%
Cn1cnc(S(=O)(=O)NCC2(O)CCOc3ccccc32)c1 (stereo unspecified) | 8.436% | 19.19%
CC(C)(C)n1cc(C2=CCN(CCNC(=O)c3ccccc3)CC2)cn1 | -28.05% | -23.84%
CN(Cc1ccccn1)C(=O)CNC(=O)N1CCc2ccccc2C1 | -1.979% | -5.834%
COc1cccn(CC(=O)N2CCC3(CCNCC3)C2)c1=O | 7.091% | 17.3%
CCc1cc(C(F)(F)F)c2c(C)nn(CC(=O)O)c2n1 | -19.08% | -17.65%
Cn1ccnc1CN1CCN(c2ccc(C#N)cn2)CC1 | -8.782% | 16.81%
COc1ccc(F)c(CN2CCCC3(CCN(C4CCOCC4)C3)C2)c1 (stereo unspecified) | 19.36% | 69.69% and 58.01%
O=C(CCc1ccc(F)c(F)c1)N1CCCCC1Cn1cccn1 (stereo unspecified) | 1.865% | 30.97%
CN(CCc1cnn(C)c1)C(=O)Cn1c(=O)[nH]c2ccccc21 | 20.53% | 30.55%
[H][C@@]12C[C@@H](Oc3ccccc3)C[C@]1([H])CN(Cc1cnc(C)cn1)C2 | 27.19% | -30.22%
COc1ccc(CN(C)[C@@H]2CN(C(=O)c3ccccc3)C[C@H]2O)cc1 | -6.743% | 37.69%

8 of the entries, repeated:

| structure | Mtb cholesterol medium | Mtb glucose medium |
|---|---|---|
| `[H][C@]12CN(CCCc3cccnc3)CC[C@@]1(O)CCN(S(=O)(=O)N(C)C)C2` | -0.6971% | 11.4% |
| `CCCNC(=O)CNC(=O)c1scnc1C` | 1.264% | 12.05% |
| `c1cnnc(NCC2CN(CCn3cncn3)CCO2)c1` (stereo unspecified) | -12.28% | -17.71% and -4.956% |
| `CCc1nccn1-c1cncc(C2CCCN2Cc2ccc(F)cc2)n1` (stereo unspecified) | 4.044% | 3.59% |
| `CCN1CCC(CNC(=O)Nc2cc(C)on2)C1` (stereo unspecified) | -14.41% | -40.98% |
| `CN(CCc1cnn(C)c1)C(=O)Cn1c(=O)[nH]c2ccccc21` | 20.53% | 30.55% |
| `NC(=O)C1CCN(C(=O)c2cccn2Cc2cccs2)C1` (stereo unspecified) | -1.993% | 6.317% |
| `CC[C@@H]1N(Cc2ccc(C)o2)CCC[C@]12CCC(=O)N2CCOC.O=C(O)C(F)(F)F` | -13.29% | -44.37% |